{
  "source": "paper PMC10476265",
  "about": "“Optimized LC-MS/MS Method for the Detection of ppCCK(21–44): A Surrogate to Monitor Human Cholecystokinin Secretion” (Journal of Proteome Research, 2023)",
  "origin": "cited, not measured here",
  "conditions": "cited from earlier work",
  "data": [
    {"molecule": "cholecystokinin (peptide, UniProt P06307 21-115, looked up, Cholecystokinin) Cholecystokinin: QPVPPADPAGSGLQRAEEAPRRQLRVSQRTDGESRAHLGALLARYIQQARKAPSGRMSIVKNLQNLDPSHRISDRDYMGWMDFGRRSAEEYEYPS", "values": [
      {"measurement": "resting CCK level in plasma", "setting": "200 mL liquid meal test, in-house radioimmunoassay against CCK C-terminus", "result": "~1", "unit": "pM"},
      {"measurement": "CCK level in plasma at 30 min", "setting": "30 min after 200 mL liquid meal, radioimmunoassay", "result": "~3", "unit": "pM"},
      {"measurement": "transient peak CCK level in plasma", "setting": "reached 8–10 min after meal ingestion, 200 mL liquid meal, radioimmunoassay", "result": "~6", "unit": "pM"}
    ]}
  ]
}
